Experimental data published in patent publication US20040002537A1, “Use of statins in the treatment of autoimmune disease” (priority 2002, published 2004).

Tests used:
CNS infiltrates = details: C57BL/6 brains, 1 and 10 mg/kg, day 11 of treatment, versus PBS treated mice, FIG. 2
CIITA = details: SJL/J mice, 1 or 10 mg/kg oral for 12 days

CC(C)c1c(C(=O)Nc2ccccc2)c(-c2ccccc2)c(-c2ccc(F)cc2)n1CC[C@@H](O)C[C@@H](O)CC(=O)O [atorvastatin]
Number and size of CNS infiltrates (H&E staining) (CNS infiltrates): reduction in number and size of CNS infiltrates | CIITA PI transcript expression in brain (CIITA; FIG. 3B): dose dependent inhibition | CIITA PIII transcript expression in brain (CIITA; FIG. 3C): dose dependent inhibition | CIITA PIV transcript expression in brain (CIITA; FIG. 3D): dose dependent inhibition | Total expression of CIITA transcripts in brain (CIITA; day 10 of EAE, FIG. 3A): inhibited the total expression of CIITA transcripts in a dose response matter
